From EP2582674B1 (Cymabay Therapeutics, Inc., priority 2010, dated 2011)
Some of these results come from one statement about several compounds together.

Target: T1, human GPR120 (Homo sapiens, UniProt Q5NUL3)
T1 construct: host or cells: HEK293 cells co-expressing Gqi5
T1 sequence (Q5NUL3 1-361): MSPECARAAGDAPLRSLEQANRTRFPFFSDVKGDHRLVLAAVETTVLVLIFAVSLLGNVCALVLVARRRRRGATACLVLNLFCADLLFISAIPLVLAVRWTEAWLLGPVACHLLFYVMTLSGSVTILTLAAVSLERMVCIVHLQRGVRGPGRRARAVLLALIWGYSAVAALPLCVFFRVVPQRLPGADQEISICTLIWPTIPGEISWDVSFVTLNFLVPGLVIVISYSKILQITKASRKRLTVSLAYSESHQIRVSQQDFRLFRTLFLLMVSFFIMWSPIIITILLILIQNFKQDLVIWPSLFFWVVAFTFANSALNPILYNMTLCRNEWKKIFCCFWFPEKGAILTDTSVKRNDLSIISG
Experiment: Intracellular Ca2+ assay in human GPR120 stable cell line (FLIPR Calcium 4 dye, Flexstation)
Format: cell-based
Details: eight concentrations from 0.00001 to 20 µM; changes (Max-Min) of fluorescence intensity

SMILES | EC50
[2H]C([2H])(C(=O)O)C([2H])([2H])c1ccc(OCc2cc(F)cc3c2OC(C)(C)C3)c(F)c1CC [Example 243, 3-(2-ethyl-3-fluoro-4-((5-fluoro-2,2-dimethyl-2,3-dihydrobenzofuran-7-yl)methoxy)phenyl)-2,2,3,3-tetradeuteriopropanoic acid] | ≤ 1 µM
CC(Cc1cc(F)c(OCc2cccc3c2OC(C)(C)C3)c(F)c1)C(=O)O (stereo not drawn) [Example 23, 3-(4-((2,2-dimethyl-2,3-dihydrobenzofuran-7-yl)methoxy)-3,5-difluorophenyl)-2-methylpropanoic acid] | ≤ 1 µM
CC(Cc1ccc(OCc2c(Cl)ccc3c2CC(C)(C)O3)cc1)C(=O)O (stereo not drawn) [Example 102, 3-(4-((5-chloro-2,2-dimethyl-2,3-dihydrobenzofuran-4-yl)methoxy)phenyl)-2-methylpropanoic acid] | ≤ 1 µM
CC(Cc1cc(F)c(OCc2c(F)ccc3c2CC(C)(C)O3)c(F)c1)C(=O)O (stereo not drawn) [Example 95, 3-(3,5-difluoro-4-((5-fluoro-2,2-dimethyl-2,3-dihydrobenzofuran-4-yl)methoxy)phenyl)-2-methylpropanoic acid] | ≤ 1 µM
CC(C)Oc1ccc(Cl)cc1COc1ccc2c(c1)CCC2CC(=O)O (stereo not drawn) [Example 258, 2-(5-((5-chloro-2-isopropoxybenzyl)oxy)-2,3-dihydro-1H-inden-1-yl)acetic acid] | ≤ 1 µM
CCc1cc(CCC(=O)O)ccc1OCc1cc(F)cc2c1OC(C)(C)C2 [Example 246, 3-(3-ethyl-4-((5-fluoro-2,2-dimethyl-2,3-dihydrobenzofuran-7-yl)methoxy)phenyl)propanoic acid] | ≤ 1 µM
CC(Cc1ccc(OCc2cc(Cl)cc3c2OCC3(C)C)cc1)C(=O)O (stereo not drawn) [Example 148, 3-(4-((5-chloro-3,3-dimethyl-2,3-dihydrobenzofuran-7-yl)methoxy)phenyl)-2-methylpropanoic acid] | ≤ 1 µM
CC(Cc1ccc(OCc2cc(Cl)cc3c2OC(C)(C)C3)c(C(F)(F)F)c1)C(=O)O (stereo not drawn) [Example 9, 3-(4-((5-chloro-2,2-dimethyl-2,3-dihydrobenzofuran-7-yl)methoxy)-3-(trifluoromethyl)phenyl)-2-methylpropanoic acid] | ≤ 1 µM
CCCc1c(CCC(=O)O)ccc(OCc2cc(Cl)cc3c2OC(C)(C)C3)c1F [Example 223, 3-(4-((5-chloro-2,2-dimethyl-2,3-dihydrobenzofuran-7-yl)methoxy)-3-fluoro-2-propylphenyl)propanoic acid] | ≤ 1 µM
CC(Cc1ccc(OCc2cccc3c2OC(C)(C)C3)cc1)C(=O)O (stereo not drawn) [Example 253, 3-(4-((2,2-dimethyl-2,3-dihydrobenzofuran-7-yl)methoxy)phenyl)-2-methylpropanoic acid] | ≤ 1 µM
CC(Cc1ccc(OCc2cc(Cl)cc3c2OC2(CCCC2)C3)cc1)C(=O)O (stereo not drawn) [Example 159, 3-(4-((5-chloro-3H-spiro[benzofuran-2,1'-cyclopentane]-7-yl)methoxy)phenyl)-2-methylpropanoic acid] | ≤ 1 µM
CC1(C)Cc2cc(F)cc(COc3ccc4c(c3)CCC4CC(=O)O)c2O1 (stereo not drawn) [Example 37, 2-(5-((5-fluoro-2,2-dimethyl-2,3-dihydrobenzofuran-7-yl)methoxy)-2,3-dihydro-1H-inden-1-yl)acetic acid] | ≤ 1 µM
C[C@H](Cc1ccc(OCc2cc(Cl)cc3c2OC(C)(C)C3)c(F)c1)C(=O)O [Example 141, (R)-3-(4-((5-chloro-2,2-dimethyl-2,3-dihydrobenzofuran-7-yl)methoxy)-3-fluorophenyl)-2-methylpropanoic acid] | ≤ 1 µM
Cc1nc2cccc(COc3c(F)cc(CC(C)C(=O)O)cc3F)c2o1 (stereo not drawn) [Example 261, 3-(3,5-difluoro-4-((2-methylbenzo[d]oxazol-7-yl)methoxy)phenyl)-2-methylpropanoic acid] | ≤ 1 µM
Cc1cc(CC(C)C(=O)O)ccc1OCc1cc(F)cc2c1OC(C)(C)C2 (stereo not drawn) [Example 6, 3-(4-((5-fluoro-2,2-dimethyl-2,3-dihydrobenzofuran-7-yl)methoxy)-3-methylphenyl)-2-methylpropanoic acid] | ≤ 1 µM
COc1cc(CCC(=O)O)ccc1OCc1cc(Cl)cc2c1OC(C)(C)C2 [Example 174, 3-(4-((5-chloro-2,2-dimethyl-2,3-dihydrobenzofuran-7-yl)methoxy)-3-methoxyphenyl)propanoic acid] | ≤ 1 µM
CC(C)C(CC(=O)O)c1ccc(OCc2cc(Cl)cc3c2OC(C)(C)C3)cc1 (stereo not drawn) [Example 266, 3-(4-((5-chloro-2,2-dimethyl-2,3-dihydrobenzofuran-7-yl)methoxy)phenyl)-4-methylpentanoic acid] | ≤ 1 µM
Cc1cc(OCc2cc(Cl)cc3c2OC(C)(C)C3)c(C)cc1CCC(=O)O [Example 207, 3-(4-((5-chloro-2,2-dimethyl-2,3-dihydrobenzofuran-7-yl)methoxy)-2,5-dimethylphenyl)propanoic acid] | ≤ 1 µM

SMILES | EC50
CC1(C)Cc2cccc(COc3ccc(CCC(=O)O)cc3)c2O1 [Example 252, 3-(4-((2,2-dimethyl-2,3-dihydrobenzofuran-7-yl)methoxy)phenyl)propanoic acid] | ≤ 1 µM
CC1(C)Cc2cc(F)cc(COc3ccc(CCC(=O)O)c4ccccc34)c2O1 [Example 121, 3-(4-((5-fluoro-2,2-dimethyl-2,3-dihydrobenzofuran-7-yl)methoxy)naphthalen-1-yl)propanoic acid] | ≤ 1 µM
CC(Cc1ccc(OCc2cc(Cl)cc3c2OC(C)(C)C3)cc1Cl)C(=O)O (stereo not drawn) [Example 26, 3-(2-chloro-4-((5-chloro-2,2-dimethyl-2,3-dihydrobenzofuran-7-yl)methoxy)phenyl)-2-methylpropanoic acid] | ≤ 1 µM
Cc1cc(OCc2ccc(Cl)c3c2OC(C)(C)C3)ccc1OCC(=O)O [Example 104, 2-(4-((4-chloro-2,2-dimethyl-2,3-dihydrobenzofuran-7-yl)methoxy)-2-methylphenoxy)acetic acid] | ≤ 1 µM
CCc1c(CC(C)C(=O)O)ccc(OCc2cc(Cl)cc3c2OC(C)(C)C3)c1F (stereo not drawn) [Example 227, 3-(4-((5-chloro-2,2-dimethyl-2,3-dihydrobenzofuran-7-yl)methoxy)-2-ethyl-3-fluorophenyl)-2-methylpropanoic acid] | ≤ 1 µM
COc1cc(COc2c(F)cc(CC(C)C(=O)O)cc2F)c2c(c1)CC(C)(C)O2 (stereo not drawn) [Example 107, 3-(3,5-difluoro-4-((5-methoxy-2,2-dimethyl-2,3-dihydrobenzofuran-7-yl)methoxy)phenyl)-2-methylpropanoic acid] | ≤ 1 µM
CC(Cc1cc(F)c(OCc2c(Cl)ccc3c2CC(C)(C)O3)c(F)c1)C(=O)O (stereo not drawn) [Example 100, 3-(4-((5-chloro-2,2-dimethyl-2,3-dihydrobenzofuran-4-yl)methoxy)-3,5-difluorophenyl)-2-methylpropanoic acid] | ≤ 1 µM
CC(Cc1cc(F)c(OCc2cccc3cn[nH]c23)c(F)c1)C(=O)O (stereo not drawn) [Example 260, 3-(4-((1H-indazol-7-yl)methoxy)-3,5-difluorophenyl)-2-methylpropanoic acid] | ≤ 1 µM
CC1(C)Cc2cc(F)cc(COc3ccc4cc(C(=O)O)ccc4c3)c2O1 [Example 114, 6-((5-fluoro-2,2-dimethyl-2,3-dihydrobenzofuran-7-yl)methoxy)-2-naphthoic acid] | ≤ 1 µM
CC1(C)Cc2cc(-c3ccccc3)cc(COc3ccc(CCC(=O)O)cc3)c2O1 [Example 186, 3-(4-((2,2-dimethyl-5-phenyl-2,3-dihydrobenzofuran-7-yl)methoxy)phenyl)propanoic acid] | ≤ 1 µM
CC1(C)Cc2cc(F)cc(COc3ccc(CCC(=O)O)c4c3CCCC4)c2O1 [Example 218, 3-(4-((5-fluoro-2,2-dimethyl-2,3-dihydrobenzofuran-7-yl)methoxy)-5,6,7,8-tetrahydronaphthalen-1-yl)propanoic acid] | ≤ 1 µM
CC(Cc1ccc(OCc2cc(Cl)cc3c2OC(C)(C)C3)c(Cl)c1)C(=O)O (stereo not drawn) [Example 12, 3-(3-chloro-4-((5-chloro-2,2-dimethyl-2,3-dihydrobenzofuran-7-yl)methoxy)phenyl)-2-methylpropanoic acid] | ≤ 1 µM
Cc1cc(COc2ccc(C(C)(C)CC(=O)O)cc2)c2c(c1)CC(C)(C)O2 [Example 158, 3-methyl-3-(4-((2,2,5-trimethyl-2,3-dihydrobenzofuran-7-yl)methoxy)phenyl)butanoic acid] | ≤ 1 µM
C[C@H](Cc1cc(F)c(OCc2c(F)ccc3c2CC(C)(C)O3)c(F)c1)C(=O)O [Example 97, (R)-3-(3,5-difluoro-4-((5-fluoro-2,2-dimethyl-2,3-dihydrobenzofuran-4-yl)methoxy)phenyl)-2-methylpropanoic acid] | ≤ 1 µM
CC1(C)Cc2cc(F)cc(COc3ccc(C4CC4C(=O)O)cc3)c2O1 (racemic) [Example 131 (racemic), 2-(4-((5-fluoro-2,2-dimethyl-2,3-dihydrobenzofuran-7-yl)methoxy)phenyl) cyclopropanecarboxylic acid] | ≤ 1 µM
CC1(C)Cc2cc(Cl)cc(COc3ccc(CCC(=O)O)cc3)c2O1 [Example 177, 3-(4-((5-chloro-2,2-dimethyl-2,3-dihydrobenzofuran-7-yl)methoxy)phenyl)propanoic acid] | ≤ 1 µM
CC1(C)Cc2c(COc3c(F)cc(C4CC4C(=O)O)cc3F)cccc2O1 (stereo not drawn) [Example 22, 2-(4-((2,2-dimethyl-2,3-dihydrobenzofuran-4-yl)methoxy)-3,5-difluorophenyl) cyclopropanecarboxylic acid] | ≤ 1 µM
CC1(C)Cc2cc(Cl)cc(COc3c(F)cc(C4CC4C(=O)O)cc3F)c2O1 (racemic) [Example 35, 2-(4-((5-chloro-2,2-dimethyl-2,3-dihydrobenzofuran-7-yl)methoxy)-3,5-difluorophenyl)cyclopropanecarboxylic acid] | ≤ 1 µM
